These are yes or no findings as the source states them, for the method shown. Some binding calls cover weakened binding; strength is not graded here. Tags and fused reporters may be left off the sequences shown.
Biological target: GST-Kapβ2 (human) (UniProt Q92973)
Assay: pull-down

Sequences of proteins named here, by UniProt entry; tags and fusion partners are left off. Residues count along the entry.
UniProt Q92973, residues 9-898: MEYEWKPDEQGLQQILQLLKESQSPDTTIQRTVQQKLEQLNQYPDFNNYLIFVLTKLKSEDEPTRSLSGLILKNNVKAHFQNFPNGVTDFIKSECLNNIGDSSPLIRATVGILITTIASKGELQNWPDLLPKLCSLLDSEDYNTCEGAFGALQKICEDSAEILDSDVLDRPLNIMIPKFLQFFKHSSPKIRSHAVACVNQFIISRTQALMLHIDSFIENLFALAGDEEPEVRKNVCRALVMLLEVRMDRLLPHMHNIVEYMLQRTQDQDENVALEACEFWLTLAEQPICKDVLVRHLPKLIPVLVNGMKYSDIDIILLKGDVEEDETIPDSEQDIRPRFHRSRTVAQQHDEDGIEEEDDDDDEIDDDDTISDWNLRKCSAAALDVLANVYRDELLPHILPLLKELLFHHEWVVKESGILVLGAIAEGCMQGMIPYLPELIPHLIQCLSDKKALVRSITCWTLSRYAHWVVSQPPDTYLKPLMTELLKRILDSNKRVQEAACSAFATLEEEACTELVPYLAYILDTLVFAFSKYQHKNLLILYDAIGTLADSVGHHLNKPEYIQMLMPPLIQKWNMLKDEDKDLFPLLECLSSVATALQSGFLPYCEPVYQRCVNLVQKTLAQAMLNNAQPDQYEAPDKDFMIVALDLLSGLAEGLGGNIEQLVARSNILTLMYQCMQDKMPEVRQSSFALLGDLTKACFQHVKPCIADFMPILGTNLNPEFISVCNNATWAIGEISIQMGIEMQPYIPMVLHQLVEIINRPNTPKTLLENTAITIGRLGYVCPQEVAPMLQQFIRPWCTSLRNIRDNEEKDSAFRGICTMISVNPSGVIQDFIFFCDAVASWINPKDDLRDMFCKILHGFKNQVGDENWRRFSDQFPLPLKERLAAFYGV

binding: binds
B1: MBP fused with the NLS region of hnRNPA2 (NLS, residues 298-336) (domain or fragment, UniProt P22626-2 298-336)
chain: PSNYGPMKSGNFGGSRNMGGPYGGGNYGPGGSGGSGGYG
